The list shows a part of the results.
Assay: S. aureus growth inhibition at 42 and 30 °C, primary screen, LtaS inhibitor project, RN4220, two temperatures (AID 720641)
Details: OD600, 20 h, 42 °C, measured here: growth at 30 °C, stronger effect = lower value

SMILES | relative growth
COc1ccccc1OP(C)(=O)Nc1ccccc1 (centres undefined) | 98.9%
CCN1C(=O)N(c2ccccc2)P(=S)(OC)c2cc3c(cc21)OCCO3 (centres undefined) | 95.1%
CP(=O)(Nc1ccc(Cl)cc1)Oc1ccccc1 (centres undefined) | 94.9%
O=C(O)CCC(=O)N=S(c1ccccc1)c1ccccc1.O=[N+]([O-])c1cc([N+](=O)[O-])c(O)c([N+](=O)[O-])c1 | 100%
CCn1cccc/c1=N\P1(=S)OCCO1 | 98.1%
Cc1cccc(NP(C)(=O)Oc2ccccc2)c1 (centres undefined) | 92.1%
CCOC(=O)c1ccc(NP(C)(=O)Oc2ccc(OC)cc2)cc1 (centres undefined) | 93.1%
CP(=O)(NC(=O)Nc1ccccc1)Oc1ccccc1 (centres undefined) | 92.8%
COP1(=S)c2c(C)nn(-c3ccccc3)c2N=C(c2ccccc2)N1C1CC1 (centres undefined) | 84.9%
O=P1(Nc2nccs2)CC=CC1 | 85.7%
CN(C)P1(=O)Nc2ccccc2S1 (centres undefined) | -0.11%
O=C(OC1CN2CCC1CC2)C12CC3CC(CC(C3)C1)C2 (centres undefined) | 90.3%
COP1(=S)N=C2c3ccccc3CN2c2cc(N(C)C)ccc21 (centres undefined) | 90.2%
Cc1cc(C)cc(OP(C)(=O)NCc2ccccc2)c1 (centres undefined) | 103%
Nc1nonc1OCCOc1nonc1N | 105%
CC1=Nc2ccc(C(F)(F)F)cc2C1(C)C | 89.5%
O=C(O)C1(O)c2ccccc2-c2ccccc21 | 95.6%
CCOP1(=S)c2c(C)nn(CCC#N)c2N=C(c2ccc(F)cc2)N1C (centres undefined) | 89.1%
O=P1(Nc2nc3ccc(Cl)cc3s2)COc2ccccc2OC1 | 57.8%
NC(=O)COC(=O)C1(O)c2ccccc2-c2ccccc21 | 84.8%
Cc1cccc(OCC(=O)OC2CN3CCC2CC3)c1 (centres undefined) | 91.9%
COc1cc(-n2cnnn2)ccc1-n1cnnn1 | 86.8%
O=C(OC1CN2CCC1CC2)c1ccc(Cl)cc1 (centres undefined) | 90.3%
Nc1nonc1-c1no[n+]([O-])c1-c1nonc1N | 91.7%
O=P1(Nc2ccccn2)COc2ccccc2OC1 | 90.7%
CC1(C)COP(=S)(N(C2=NCCC2)c2ccccc2)OC1 | 97.1%
Cc1cc(C)cc(OP(C)(=O)Nc2ccc(OC(C)C)cc2)c1 (centres undefined) | 83%

SMILES | relative growth
CCSP(=O)(c1ccccc1)c1ccccc1 | 91.5%
Cc1nn(CCC#N)c2c1P(=O)(Nc1ccccc1Cl)N(C)C(c1ccc(F)cc1)=N2 (centres undefined) | 93%
CP(=O)(N1CCOCC1)N1CCOCC1 | 95.5%
Cc1nn(-c2ccccc2)c2c1P(=O)(N1CCOCC1)N(C)C(c1ccccc1)=N2 (centres undefined) | 95%
Cc1ccc(C(=O)OC2CN3CCC2CC3)cc1 (centres undefined) | 90.1%
Nc1nonc1OCc1nonc1COc1nonc1N | 82.8%
CC(=O)OC1(C#N)CN2CCC1CC2 (centres undefined) | -0.94%
C=CCN1CCN(CCOC(=O)C(O)(c2ccccc2)c2ccccc2)CC1 | 85.9%
Cc1ccccc1NP(C)(=O)Nc1ccccc1C | 83%
CC(=O)OC1CN2CCC1C(c1ccccc1)C2 (centres undefined) | 91.5%
O=P(Nc1nccs1)(c1ccccc1)c1ccccc1 | 90.9%
O=C(OCCN1CCN(CCOCc2ccccc2)CC1)C(O)(c1ccccc1)c1ccccc1 | 111%
Cc1cc(NC2=NC3C(C(=O)N(C)C(=O)N3C)N2C)n(-c2ccccc2)n1 (centres undefined) | 89.3%
O=P1(Nc2nncs2)C=C(c2ccccc2)SC(c2ccccc2)=C1 | 101%
O=P1(Nc2nc3ccc(Cl)cc3s2)COc2ccccc2O1 (centres undefined) | 75.8%
CC1CCC(C(C)C)C(OP(=O)(Nc2nccs2)c2ccccc2)C1 (centres undefined) | 79%
O=C(OC1CN2CCC1CC2)c1ccccc1 (centres undefined) | 83%
COc1cc2c(cc1NP(C)(=O)Oc1ccccc1)oc1ccccc12 (centres undefined) | 25.4%
COC(=O)c1cc2c(s1)N=C(c1ccccc1)N(C)P2(=O)N1CCOCC1 (centres undefined) | 93.9%
O=C(OCC1CN(Cc2ccccc2)CCO1)C(O)(c1ccccc1)c1ccccc1 (centres undefined) | 86.7%
O=C(COC(=O)C(O)(c1ccccc1)c1ccccc1)N1CCCCC1 | 95%
CCOP(=Nc1nc2ccccc2n2nnnc12)(OCC)OCC | 88.6%
CP(=O)(Nc1ccccn1)Oc1ccccc1 (centres undefined) | 91.2%
CCOP(OCC)N1CCOCC1 | 101%
CP(=O)(Nc1ccc(Cl)cc1)Oc1ccc(F)cc1 (centres undefined) | 70.8%
CCc1ccc(OP(C)(=O)Nc2cccnc2)cc1 (centres undefined) | 93.3%
CCc1nc2c(n1)c1c(non1O)c1c2no[n+]1[O-] | 18.5%

Source: PubChem BioAssay AID720641 (ICCB-Longwood Screening Facility, Harvard Medical School, 2013)
